The source of these data is publication PMC10897310.

Amino acid sequences for entries named in this document (tags omitted). A change or cut given only in a name is not applied to a line headed by its entry.
UniProt Q96HS1: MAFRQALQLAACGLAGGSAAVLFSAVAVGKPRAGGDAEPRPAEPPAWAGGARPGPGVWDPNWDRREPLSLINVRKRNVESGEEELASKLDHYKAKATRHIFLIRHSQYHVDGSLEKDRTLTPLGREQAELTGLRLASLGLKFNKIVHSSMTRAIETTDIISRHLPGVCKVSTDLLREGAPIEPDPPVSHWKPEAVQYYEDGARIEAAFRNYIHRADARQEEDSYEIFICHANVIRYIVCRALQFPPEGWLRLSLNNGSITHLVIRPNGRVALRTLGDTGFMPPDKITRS

These are yes or no findings as the source states them, for the method shown. Binding calls can cover weak binding; strength is not graded here. Tags and fused reporters may be left off the sequences shown.

The experiment has as its target glutathione S-transferase (GST)-fused PGAM5 (not stated (human or mouse cDNA cloned)) (UniProt Q96HS1). Nature of the experiment: pull-down; GST pull-down with GST-PGAM5 on glutathione-agarose beads and His-MARCH2; blots with anti-GST and anti-His; both purified.

B1: His-MARCH2 (enzyme, UniProt Q9P0N8 1-246)
chain: MTTGDCCHLPGSLCDCSGSPAFSKVVEATGLGPPQYVAQVTSRDGRLLSTVIRALDTPSDGPFCRICHEGANGECLLSPCGCTGTLGAVHKSCLEKWLSSSNTSYCELCHTEFAVEKRPRPLTEWLKDPGPRTEKRTLCCDMVCFLFITPLAAISGWLCLRGAQDHLRLHSQLEAVGLIALTIALFTIYVLWTLVSFRYHCQLYSEWRKTNQKVRLKIREADSPEGPQHSPLAAGLLKKVAEETPV
As for B1, the binding result is recorded as “binds”.
